{"source": "PubChem BioAssay AID504834", "about": "(National Center for Advancing Translational Sciences (NCATS), 2011)", "note": "The campaign covered roughly 320,000 compounds. About 22,000 (6.9%) were called active. This list was built around the results that the source calls inconclusive (neither active nor inactive); the mix of calls is not that of the screen. Calls follow the shape of the dose curve; as a rule, active = well fitted inhibition curve with a large enough effect; inconclusive = small, poorly fitted or top-dose-only effect, or another doubt; inactive = no such curve, though single readings can be large or run the other way. A potency beside an inconclusive call is a rough fit, not a confirmed value. % is scaled to controls: 0 for no effect and ±100 for the full control effect; potency is read from the fitted curve at half-maximal effect."}
{"assay": "Primary qHTS for delayed death inhibitors of the malarial parasite plastid, 96 hour incubation", "conditions": "P. falciparum luciferase reporter growth; series mostly up to 28.7 µM; activity change, negative = inhibition: at the top concentration", "in_short": "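Delayed-death screen, second-generation endpoint: infected erythrocytes, 2% hematocrit, 0.05% parasitemia final; 96 hours at 37 C, 5% CO2; luciferase detection reagent; luminescence decrease equals reduced growth.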"}
{"smiles": "CN(Cc1ccccc1Br)C(=O)CSc1nnnn1C1CC1", "Potency": "active: 3.29 µM"}
{"smiles": "CN1C(=O)C2(Oc3ccccc3C3CC(c4ccccc4)=NN32)c2ccccc21", "note": "(stereo unspecified)", "activity change, negative = inhibition": "inactive: 38.2%"}
{"smiles": "COc1ccccc1[C@]1(C)ON(c2ccccc2C(F)(F)F)C1=O", "Potency": "active: 0.828 µM"}
{"smiles": "CC(=O)c1cccc(NC(=O)Nc2ccc(C(=O)N3CCOCC3)cc2)c1", "Potency": "inconclusive: 18.5 µM [inhibitor, single point]"}
{"smiles": "O=C(NC(c1ccccc1)C(Cl)Cl)c1ccccc1", "note": "(stereo unspecified)", "Potency": "active: 2.62 µM"}
{"smiles": "CCN1CSC(=S)N(Cc2ccc(OC)cc2)C1", "Potency": "inconclusive: 5.86 µM [inhibitor, partial curve]"}
{"smiles": "COc1ccc2c(c1OC)C(=O)N1N=C(c3ccc(O)cc3)CC21", "note": "(stereo unspecified)", "activity change, negative = inhibition": "inactive: 33%"}
{"smiles": "COc1cccc(C(=O)NC(=O)Nc2cc(C)on2)c1", "Potency": "inconclusive: 18.5 µM [inhibitor, single point]"}
{"smiles": "COc1cc(OC)c(OC)cc1/C=C/C(=O)c1ccc(NS(=O)(=O)c2ccc(C)cc2)cc1", "Potency": "active: 13.1 µM"}
{"smiles": "O=C(c1nc2ccccn2c1CN1CCC(Cc2ccccc2)CC1)N1CCCC1", "activity change, negative = inhibition": "inactive: -1.64%"}
{"smiles": "Cc1ccc(C(=O)NCCN2C3=NC[C@@H](Cc4ccccc4)N3C[C@H]2Cc2ccc(O)cc2)cc1Br", "Potency": "inconclusive: 5.86 µM [inhibitor, partial curve, poor fit]"}
{"smiles": "COc1ccccc1NC(=O)CSc1ccc(-c2ccc(-n3cccn3)cc2)nn1", "Potency": "inconclusive: 18.5 µM [inhibitor, single point]"}
{"smiles": "CS(=O)(=O)N(Cc1ccccc1Cl)c1ccc(C(=O)NCc2ccccn2)cc1", "Potency": "active: 10.4 µM"}
{"smiles": "CCOc1ccc(NC(=O)CCC(=O)N/N=C/c2ccc3c(c2)OCO3)cc1", "Potency": "inconclusive: 18.5 µM [inhibitor, single point]"}
{"smiles": "COc1cc(OC)c(-c2cc(C(=O)O)ccc2OC)c(OC)c1", "activity change, negative = inhibition": "inactive: -9.23%"}
{"smiles": "CCN(CC)S(=O)(=O)c1cccc(NC(=O)COc2ccc(Cl)cc2Br)c1", "Potency": "inconclusive: 18.5 µM [inhibitor, single point]"}
{"smiles": "COC(=O)[C@@H](CC(C)C)NS(=O)(=O)N(Cc1ccccc1)[C@@H](CC(C)C)C(=O)OC", "Potency": "inconclusive: 6.57 µM [inhibitor, partial curve]"}
{"smiles": "C/C(=N/NC(=O)c1cccs1)c1cccc(N)c1", "Potency": "inconclusive: 11.7 µM [inhibitor, single point]"}
{"smiles": "COc1ccc2c(CC(=O)NCc3ccc4c(c3)OCO4)coc2c1", "Potency": "inconclusive: 4.15 µM [inhibitor, full curve, poor fit]"}
{"smiles": "CCOC(=O)c1ccccc1NC(=O)CSc1nnc(Cc2cccn2C)n1-c1ccc(F)cc1", "activity change, negative = inhibition": "inactive: 58.5%"}
{"smiles": "Cc1oc(-c2ccoc2)nc1CN(Cc1ccccc1)CC1CC1", "Potency": "inconclusive: 18.5 µM [inhibitor, single point]"}
{"smiles": "COc1ccc(NC(=O)c2cc(C)cc(C)c2)cc1S(=O)(=O)N1CCCCC1", "Potency": "inconclusive: 11.7 µM [inhibitor, single point]"}
{"smiles": "COC(=O)c1ccc(Cl)c(NC(=O)NC23CC4CC(CC(C4)C2)C3)c1", "Potency": "active: 0.657 µM"}
{"smiles": "CCN(C(=O)CN1CCN(S(=O)(=O)c2ccccc2C(F)(F)F)CC1)c1c(N)n(Cc2ccccc2)c(=O)[nH]c1=O", "Potency": "inconclusive: 9.28 µM [inhibitor, partial curve]"}
{"smiles": "Cc1noc(C)c1COC(=O)c1ccc(S(=O)(=O)NCc2ccco2)cc1", "Potency": "inconclusive: 0.415 µM [inhibitor, partial curve, poor fit]"}
{"smiles": "CCOC(=O)NCc1ccc(S(=O)(=O)Nc2ccc(C)cc2)cc1", "Potency": "inconclusive: 11.7 µM [inhibitor, single point]"}
{"smiles": "CCCCN1C(=O)C(O)(CC(=O)c2c(C)n[nH]c2C)c2cc(Br)ccc21", "note": "(stereo unspecified)", "Potency": "inconclusive: 18.5 µM [inhibitor, partial curve, poor fit]"}
{"smiles": "COC(=O)C(C)Oc1cc(OC(C)C(=O)OC)c2c(C)c(Cl)c(=O)oc2c1", "note": "(stereo unspecified)", "activity change, negative = inhibition": "inactive: 26.6%"}
{"smiles": "C#CCN1C(=O)S/C(=C/C=C/c2ccc(N(C)C)cc2)C1=O", "Potency": "inconclusive: 4.65 µM [inhibitor, partial curve, poor fit]"}
{"smiles": "O=C(/C=C/Sc1ccccc1)c1ccc(Cl)cc1", "Potency": "inconclusive: 16.5 µM [inhibitor, single point]"}
{"smiles": "O=C(NCc1ccncc1)c1cccc(S(=O)(=O)N2CCc3ccccc32)c1", "Potency": "inconclusive: 10.4 µM [inhibitor, partial curve, poor fit]"}
{"smiles": "CCc1cccc(CC)c1NC(=O)CSc1nnc(C2CC2)n1C", "activity change, negative = inhibition": "inactive: -0.913%"}
{"smiles": "Cc1ccccc1NC(=S)NC(=O)c1cncc(Br)c1", "activity change, negative = inhibition": "inactive: 14.2%"}
{"smiles": "O=[N+]([O-])c1ccccc1Nc1c2ccccc2nc2ccccc12", "Potency": "inconclusive: 0.0033 µM [inhibitor, full curve, poor fit]"}
{"smiles": "O=C(O)CSC1c2ccccc2C(=O)N1Cc1ccccc1", "note": "(stereo unspecified)", "Potency": "inconclusive: 0.0029 µM [inhibitor, full curve, poor fit]"}
{"smiles": "Cc1ccc(C)c(N2CCN(C(=O)C3CCN(c4nc(C)cc(C)n4)CC3)CC2)c1", "Potency": "inconclusive: 9.28 µM [inhibitor, partial curve, poor fit]"}
{"smiles": "CCN(CC(=O)Nc1sc2c(c1C#N)CCCC2)Cc1nc2ccccc2c(=O)[nH]1", "Potency": "inconclusive: 8.28 µM [inhibitor, partial curve, poor fit]"}
{"smiles": "Cc1ccnc(NC(=O)CCC(=O)N(CC(=O)NCc2ccccc2)c2ccc3c(c2)OCO3)c1", "Potency": "inconclusive: 18.5 µM [inhibitor, partial curve, poor fit]"}
{"smiles": "C#CCOCCOCCOCCNc1nc(N2CCN(C(=O)CCCCCCCCCCNC(=O)Cn3cc(CCCCCN)nn3)CC2)nc(N2CCN(C(=O)CCCCCCCCCCNC(=O)[C@@H](CCC(=O)O)n3cc(CCCCCN)nn3)CC2)n1", "Potency": "inconclusive: 0.465 µM [inhibitor, partial curve]"}
{"smiles": "CC(=O)c1ccc(NC(=O)c2noc3c2CCC3)cc1", "Potency": "inconclusive: 4.65 µM [inhibitor, partial curve, poor fit]"}
{"smiles": "O=C(CSc1nnnn1-c1ccccc1)NCC1(N2CCOCC2)CCCCC1", "Potency": "inconclusive: 20.8 µM [inhibitor, partial curve, poor fit]"}
{"smiles": "CC(CC(=O)Nc1cccnc1)c1ccccc1", "note": "(stereo unspecified)", "Potency": "inconclusive: 5.86 µM [inhibitor, single point]"}
{"smiles": "O=C(CCCO)NNc1c2ccccc2nc2ccccc12", "Potency": "active: 1.31 µM"}
{"smiles": "COc1ccc(N2C(=O)C(CC(=O)Nc3ccccc3)N(CCc3ccc(OC)c(OC)c3)C2=O)cc1", "note": "(stereo unspecified)", "Potency": "inconclusive: 18.5 µM [inhibitor, single point]"}
{"smiles": "COCc1cc(CN2CCN(C)CC2)c(O)c2ncccc12", "Potency": "active: 8.28 µM"}
{"smiles": "CCS(=O)(=O)c1ccc2oc(SCC(=O)c3ccco3)nc2c1", "Potency": "inconclusive: 2.62 µM [inhibitor, full curve, poor fit]"}
{"smiles": "COc1ccccc1NS(=O)(=O)c1ccc(C(=O)NCC(c2ccccc2OC)N(C)C)cc1", "note": "(stereo unspecified)", "Potency": "inconclusive: 18.5 µM [inhibitor, single point]"}
{"smiles": "COc1ccccc1-n1c(N)c(C(=O)NCC2CCCO2)c2nc3ccccc3nc21", "note": "(stereo unspecified)", "Potency": "inconclusive: 5.22 µM [inhibitor, partial curve, poor fit]"}
{"smiles": "CCOc1ccc(N2CC(=O)SC2=S)cc1", "activity change, negative = inhibition": "inactive: -12.9% [at 5.75 µM]"}
{"smiles": "O=C(NCCCNC1CCCCC1)c1ccc(/C=N/O)nc1", "Potency": "inconclusive: 10.4 µM [inhibitor, single point]"}
{"smiles": "CCC(CC)C(=O)N1N=C(c2ccc(NS(C)(=O)=O)cc2)CC1c1ccccc1", "note": "(stereo unspecified)", "Potency": "inconclusive: 13.1 µM [inhibitor, partial curve, poor fit]"}
{"smiles": "O=C(NCc1ccccc1)C(c1cccnc1)N(C(=O)c1csnn1)c1ccc(F)cc1", "note": "(stereo unspecified)", "Potency": "inconclusive: 18.5 µM [inhibitor, single point]"}
{"smiles": "Cc1ccc(N(C(=O)c2csnn2)C(C(=O)NC(C)(C)C)c2cccs2)cc1", "note": "(stereo unspecified)", "Potency": "inconclusive: 10.4 µM [inhibitor, partial curve, poor fit]"}
{"smiles": "CCSc1ccccc1C(=O)Nc1cccc(OC)c1", "Potency": "inconclusive: 11.7 µM [inhibitor, single point]"}
{"smiles": "COc1cc(/C=N/N=C2/NC(=O)C(CC(=O)O)S2)ccc1OCc1ccc(Cl)cc1", "note": "(stereo unspecified)", "Potency": "inconclusive: 10.4 µM [inhibitor, single point]"}
{"smiles": "O=C(Nc1cccc2c1CCCC2)c1cccc(F)c1", "activity change, negative = inhibition": "inactive: 65.8%"}
{"smiles": "O=C(N/N=C/C(Cl)=C/c1ccccc1)c1ccc2c(c1)OCO2", "Potency": "inconclusive: 14.7 µM [inhibitor, single point]"}
{"smiles": "Cc1cc(C)c(N2C(=O)C3C4CC(=O)C(c5ccccc54)C3C2=O)c(C)c1", "note": "(stereo unspecified)", "activity change, negative = inhibition": "inactive: -0.714%"}
{"smiles": "COc1ccc(C)cc1N(C(=O)c1cccc(F)c1)c1nc2ccccc2s1", "Potency": "inconclusive: 11.7 µM [inhibitor, single point]"}
{"smiles": "CCCCOc1ccc(OC(=O)c2cccnc2)cc1", "activity change, negative = inhibition": "inactive: -31.2%"}
{"smiles": "C/C(=N\\OC(=O)c1c(-c2c(F)cccc2Cl)noc1C)c1nccs1", "Potency": "inconclusive: 13.1 µM [inhibitor, single point]"}
{"smiles": "CCn1c(SCC(=O)Nc2nccs2)nnc1-c1ccccc1", "activity change, negative = inhibition": "inactive: 11.6%"}
{"smiles": "COc1ccc(CNc2nc3c(c(=O)n(Cc4ccc(Br)cc4)c(=O)n3C)n2C)cc1", "Potency": "inconclusive: 18.5 µM [inhibitor, single point]"}
{"smiles": "NC(=O)c1ccccc1NC(=O)c1cc(S(=O)(=O)N2CCCCC2)ccc1N1CCOCC1", "Potency": "active: 6.57 µM"}
{"smiles": "CCOC(=O)Cc1ncccc1C(=O)Nc1ccc(Oc2ccccc2)cc1", "Potency": "active: 11.7 µM"}
{"smiles": "CCOC(=O)C1=C(COC(=O)c2ccc3ccccc3c2O)NC(=O)NC1C", "note": "(stereo unspecified)", "Potency": "inconclusive: 18.5 µM [inhibitor, single point]"}
